Our source for the binding values is article PMC12017343, “Extended repertoire of CXC chemokines acting as agonists and antagonists of the human and murine atypical chemokine receptor ACKR2” (Journal of Leukocyte Biology, 2025).

Sequences of proteins named here, by UniProt entry; tags and fusion partners are left off. A change or cut given only in a name is not applied to a line headed by its entry.
UniProt Q99616: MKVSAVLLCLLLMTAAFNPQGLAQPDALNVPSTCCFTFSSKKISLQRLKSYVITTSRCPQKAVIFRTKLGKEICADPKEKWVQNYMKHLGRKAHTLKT

Test [1] deals with T1, human ACKR2 N-terminally fused with the NanoLuc (human) (UniProt O00590).
T1 sequence: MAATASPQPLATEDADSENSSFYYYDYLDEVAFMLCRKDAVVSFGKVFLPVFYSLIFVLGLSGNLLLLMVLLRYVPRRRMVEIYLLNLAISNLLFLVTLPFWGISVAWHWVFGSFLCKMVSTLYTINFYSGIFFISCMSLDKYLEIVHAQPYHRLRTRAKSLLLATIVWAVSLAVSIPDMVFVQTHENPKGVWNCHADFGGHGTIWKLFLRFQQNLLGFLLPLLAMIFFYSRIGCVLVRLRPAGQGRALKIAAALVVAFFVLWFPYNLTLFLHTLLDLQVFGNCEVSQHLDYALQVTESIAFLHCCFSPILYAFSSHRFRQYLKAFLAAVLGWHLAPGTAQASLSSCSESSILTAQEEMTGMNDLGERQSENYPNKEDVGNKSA
Nature of the test: FRET or BRET; NanoBRET competition binding screen: competitor chemokine (100 nM) against LIH222-AZ594 (5 nM for human, 10 nM for mouse ACKR2) on HEK293T cells expressing NanoLuc-ACKR2; 2 h on ice; only the binder purified. A general note: Bioluminescence resonance energy transfer reports proximity on the nanometre scale.

In test [2] the target is T2, mouse ACKR2 N-terminally fused with the NanoLuc (mouse) (UniProt O08707).
T2 sequence: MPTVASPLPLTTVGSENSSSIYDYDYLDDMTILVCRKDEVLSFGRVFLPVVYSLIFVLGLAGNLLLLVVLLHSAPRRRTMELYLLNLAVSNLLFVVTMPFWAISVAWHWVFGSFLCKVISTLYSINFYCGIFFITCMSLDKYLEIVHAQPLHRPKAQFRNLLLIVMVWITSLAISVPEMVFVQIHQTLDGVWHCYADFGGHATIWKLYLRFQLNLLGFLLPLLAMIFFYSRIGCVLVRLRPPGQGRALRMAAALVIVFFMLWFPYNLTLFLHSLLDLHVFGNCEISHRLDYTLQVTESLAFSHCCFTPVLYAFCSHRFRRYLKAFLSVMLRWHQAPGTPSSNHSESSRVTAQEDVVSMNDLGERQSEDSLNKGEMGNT
Described as above.

Test [3] has as its target T1, human ACKR2 N-terminally fused with the NanoLuc (human). In words: FRET or BRET; NanoBRET competition binding, concentration-response: increasing chemokine (highest 300 nM) against LIH222-AZ594 (5 nM for human, 10 nM for mouse) on HEK293T cells expressing NanoLuc-ACKR2; 2 h on ice; only the binder purified.

These are yes or no findings as the source states them, for the method shown. In cells and extracts the contact can be indirect. A result given as binding can be weak or reduced; the word gives no strength. Tags and fused reporters may be left off the sequences shown.

Regarding human CCL14 (ligand), the binding result in test [1] is reported as “binds”.
Consider mouse CXCL5 (ligand), for which the binding entry in test [2] is listed as “binds”.
Consider human CXCL5 (ligand), for which the binding entry in test [1] and in test [3] was “binds” throughout.
Regarding “human CCL13 (from UniProt Q99616) (ligand)”, the binding result in test [1] is recorded as “binds”.
